In PubChem BioAssay AID2685 (National Center for Advancing Translational Sciences (NCATS), 2010):
Hit rate of the full screen: of about 320,000 compounds, about 2,100 (0.66%) were called active. This list was built around the results that the source calls inconclusive (neither active nor inactive); the mix of calls is not that of the screen. Calls follow the shape of the dose curve; as a rule, active = well fitted inhibition curve with a large enough effect in the signal ratio, with a control signal flat (not every such curve was filed as active); inconclusive = small, poorly fitted or top-dose-only effect, or effect the other way, or a change in a side signal; inactive = flat fitted curve, though single readings scatter; the % refers to the signal ratio. A potency beside an inconclusive call is a rough fit, not a confirmed value.

Test: qHTS Assay for Lipid Storage Modulators in Drosophila S3 Cells
Details: BODIPY lipid droplet fluorescence, 18-24 h, cells fed with added oleic acid; lipid storage change, negative = inhibition: at 46.1 µM (top of the series) unless noted
Procedure, shortened: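 Drosophila S3 cells loaded with oleic acid (400 uM, as added) and compounds at several concentrations; lipid droplets imaged by 488-nm laser-scanning cytometry, 500–530 nm intensity and object ratio to cell channel. Percent activity normalized to 20 uM Triacsin C.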
% is scaled to controls: 0 for no effect and ±100 for the full control effect; potency is read from the fitted curve at half-maximal effect.

SMILES	Potency	lipid storage change, negative = inhibition
CC(C)N(Cc1ccccc1)C(=O)COC(=O)c1ccc2ncsc2c1	inconclusive: 29.1 µM [activator, single point]	
Cc1cc([N+](=O)[O-])nn1CC(=O)NCc1nc2ccccc2[nH]1		inconclusive: -67.7%
Cc1ccc(NC(=O)COC(=O)c2cccc3c2C(=O)c2ccccc2C3=O)c(C)c1		inconclusive: -37.6%
CCCc1cc(NCCN(C)C)n2c(nc3ccccc32)c1C#N		inconclusive: 55%
O=C(c1sccc1-c1ccccc1)N1CCN(S(=O)(=O)c2ccccc2F)CC1		inconclusive: 15.6%
O=C(Oc1ccc(Br)cc1C(=S)N1CCCC1)c1ccccc1F	inconclusive: 23.1 µM [activator, single point]	
COc1ccc(CNC(=O)C2CCN(C(=O)[C@@H](CC(C)C)NC(=O)OC(C)(C)C)CC2)cc1		inconclusive: 16.7%
CCN(CC)c1nc2ccccc2nc1C(C#N)C(=O)NCCCOC (stereo not given)	inconclusive: 2.91 µM [activator, full curve]	
O=C1CC(NCc2ccc3c(c2)OCO3)C(=O)N1Cc1ccc2c(c1)OCO2 (stereo not given)		inconclusive: -3.17%
Cc1nc2c(C(=O)NCc3ccco3)cnn2c(C)c1Cc1ccc(F)cc1Cl		inconclusive: -4.17%
CCOC(=O)c1c(C)[nH]c(=S)c(C#N)c1-c1ccc(Cl)cc1	inconclusive: 1.16 µM [activator, full curve, poor fit]	
Cc1onc(-c2ccccc2Cl)c1C(=O)Nc1nc2ccc(S(C)(=O)=O)cc2s1		inconclusive: 71.9%
COc1cc(C(=O)Sc2ccc(C)cc2)cc(OC)c1OC	inconclusive: 23.1 µM [activator, partial curve, poor fit]	
CC(=O)c1ccc(N2CCN(C(=O)/C=C/c3ccc(S(=O)(=O)N4CCOCC4)cc3)CC2)cc1		inconclusive: -36.4%
CC1CCN(C(c2cc3cc4c(cc3[nH]c2=O)OCO4)c2nnnn2CC2CCCO2)CC1 (stereo not given)		inconclusive: -23.7%
O=C(c1ccc(COc2ccccc2Br)o1)N1CCCCCC1		inconclusive: 82.9%
C=CCN1C(=O)/C(=C2/Sc3ccc(OC)cc3N2CC)SC1=S	inconclusive: 0.411 µM [falling, full curve, poor fit]	
O=C(Nc1ccc2c(c1)nc1n2CCOC1)c1ccccc1		inconclusive: 44.6%
CCOC(=O)N1CCN(C(=O)Nc2ccc(NC(=O)N3CCN(C(=O)OCC)CC3)cc2)CC1	inconclusive: 29.1 µM [falling, single point]	
Cc1ccc(N(CC(=O)NCCc2ccc(F)cc2)S(=O)(=O)c2ccc(Cl)c([N+](=O)[O-])c2)c(C)c1		inconclusive: -67.3%
CN1CCCC1=Nc1c2c(nc3ccccc13)N(C)CC2		inconclusive: -16.1%
Cc1c(C)c2ccc(OCC(=O)NC(Cc3c[nH]c4ccc(O)cc34)C(=O)O)c(C)c2oc1=O (stereo not given)		inconclusive: 18.2%
O=C(CSc1nc2ncccc2[nH]1)c1cccc([N+](=O)[O-])c1	inconclusive: 20.6 µM [cytotoxic, single point]	
CC(=O)NS(=O)(=O)c1cccnc1Nc1ccc(Cl)cc1		inconclusive: -139%
O=C(Nc1ccccc1)c1ccc(F)c(S(=O)(=O)N2CCOCC2)c1		inconclusive: 59.1%
COc1ccccc1CNC(=O)c1cccc(S(=O)(=O)N2CCCC2)c1		inconclusive
CCOC(=O)CC(NC(=O)c1ccco1)c1ccc(C)cc1 (stereo not given)		inconclusive: 28.9%

SMILES	Potency	lipid storage change, negative = inhibition
CCN(Cc1nc2ccccc2c(=O)[nH]1)C(=O)c1cc2c(s1)CCCCC2		inconclusive: -8.28%
O=C(CNC(=O)c1cccs1)c1ccc(Cl)cc1		inconclusive: -165%
COCCCn1c(SCC(=O)Nc2ccc3c(c2)OCCO3)nnc1-c1ccoc1C	inconclusive: 0.461 µM [activator, full curve]	
CCOc1ccc(N(C(=O)c2ccccc2Cl)C2=NC(C)(C)CS2)cc1		inconclusive: -20.5%
C#CCOCCOCCOCCNc1nc(N2CCN(C(=O)CCCCCCCCCCNC(=O)[C@@H](CCC(=O)O)n3cc(CCCCCN)nn3)CC2)nc(N2CCN(C(=O)CCCCCCCCCCNC(=O)[C@H](CO)n3cc(CCCSC)nn3)CC2)n1	inconclusive: 4.11 µM [falling, single point]	
COc1ccc(OC)c(C(=O)COC(=O)CN2C(=O)NC3(CCCCC3C)C2=O)c1 (stereo not given)		inconclusive: -21.2%
COc1cccc2oc3ccc(C#CC4(N)CCCCC4)cc3c(=O)c12	inconclusive: 5.8 µM [activator, partial curve]	
Nc1nc2n(n1)C(c1ccco1)CC(c1ccc(F)cc1)N2 (stereo not given)		inconclusive: 66.2% [activator]
O=C1CCCC2=C1C(c1cccs1)CC(=O)N2c1ccc(F)cc1 (stereo not given)		inconclusive: -20.5%
CCCc1nn(C)c(C(=O)Nc2ccccc2)c1Cl	inconclusive: 25.9 µM [activator, single point]	
CCN(C(=O)COC(=O)Cc1c(F)cccc1Cl)c1c(N)n(Cc2ccccc2)c(=O)[nH]c1=O		inconclusive: 5.13%
O=C(NC1CCCCC1)c1ccc2snnc2c1	inconclusive: 32.6 µM [falling, single point]	
CCN(CC(=O)Nc1ccc(S(=O)(=O)N2CCCCC2)cc1)Cc1ccccc1		inconclusive: 4.18%
COc1ccccc1NC(=O)c1nnn(Cc2ccccc2)c1NC(=O)C(F)(F)F	inconclusive: 2.06 µM [activator, full curve]	
Clc1c(-c2ccccc2)nnn1-c1ccccc1		inconclusive: 25.5%
CCC(C(=O)N1CCN(S(=O)(=O)c2sc(C(=O)O)c(C)c2C(=O)O)CC1)c1ccccc1 (stereo not given)		inconclusive: 5.62%
Cc1[nH]n(-c2ccccc2)c(=O)c1S(=O)(=O)c1ccccc1		inconclusive: 6.25%
Cc1cc(C)nc(SCC(=O)c2ccc(F)c(C)c2)n1		inconclusive: 6.77%
CCN(CC)C(=O)c1[nH]cnc1C(=O)Nc1ccon1	inconclusive: 25.9 µM [activator, partial curve, poor fit]	
COc1ccc(NC(=O)c2cnn(-c3ccccc3)c2C)cc1		inconclusive: 14.5%
CC(OC(=O)CN(C)S(=O)(=O)c1ccc(Cl)cc1)C(=O)Nc1ccc(N2CCOCC2)cc1 (stereo not given)		inconclusive: -9.51%
O=C(CSc1ccccc1)Nc1ccc(N2CCOCC2)cc1		inconclusive: -21.2%
S=C(Nc1ccccc1Cl)NC1CC2CCCC(C1)N2C1CC1 (stereo not given)	inconclusive: 1.16 µM [cytotoxic, single point]	
COC(=O)N/N=C/c1cccc(OCCSc2ccc(Cl)cc2)c1	inconclusive: 0.0037 µM [activator, full curve, poor fit]	
COC(=O)/C(=N/Nc1ccccc1)N1CCCc2ccccc21		inconclusive: 30.7%
O=C(NCCN1CCOCC1)C(=O)NCC1OCCN1S(=O)(=O)c1ccc(Br)cc1 (stereo not given)		inconclusive: -3.26%
Cc1ccc(SCC(=O)OCC(=O)N2CCN(C(=O)c3ccco3)CC2)c(C)c1		inconclusive: 12.6%

Copied from the list:
lipid storage change, negative = inhibition, `COc1ccc(NC(=O)c2cnn(-c3ccccc3)c2C)cc1` reads inconclusive: 14.5%
lipid storage change, negative = inhibition, `COC(=O)/C(=N/Nc1ccccc1)N1CCCc2ccccc21` reads inconclusive: 30.7%
lipid storage change, negative = inhibition, `Cc1cc(C)nc(SCC(=O)c2ccc(F)c(C)c2)n1` reads inconclusive: 6.77%
lipid storage change, negative = inhibition, `O=C1CCCC2=C1C(c1cccs1)CC(=O)N2c1ccc(F)cc1` (stereo not given) reads inconclusive: -20.5%

(list continues)

SMILES	Potency	lipid storage change, negative = inhibition
Cc1oc(-c2ccccc2)nc1C(=O)OCC(=O)NC(=O)NCC(C)C		inconclusive: 11.8%
CCC(C)Sc1ccc([C@H]2N[C@@](Cc3ccccc3)(C(=O)OC)[C@H]3C(=O)N(CC)C(=O)[C@@H]23)cc1OC (stereo not given in full)		inconclusive: 65.3%
Cc1ccnc(NC(=S)NC(=O)/C=C/c2ccco2)c1		inconclusive: 174%
O=C(NCc1ccc(Cl)cc1)c1ccccc1Oc1ccccc1		inconclusive: -121%
COc1ccc(NC(=O)Cc2ccccc2)cn1		inconclusive: 4.61%
CSc1ccc(S(=O)(=O)Nc2c(C)n(C)n(-c3ccccc3)c2=O)cc1		inconclusive: 0.529%
COC(=O)c1cc(NC(=O)Nc2cccc(Cl)c2)ccc1Cl	inconclusive: 32.6 µM [falling, single point]	
O=C(CSc1nnc(CNc2cccc(C(F)(F)F)c2)n1Cc1ccco1)NCc1ccco1	inconclusive: 29.1 µM [falling, single point]	
CCCn1nnc(NC(=O)c2sc3ccccc3c2Cl)n1	inconclusive: 5.17 µM [activator, partial curve, poor fit]	
O=C(NCCCCNC(=O)C1CCCC1)C1CCCC1		inconclusive: 8.31%
CS(=O)(=O)N(Cc1ccc(Cl)cc1)c1ccc(C(=O)NCCSCc2ccco2)cc1	inconclusive: 6.51 µM [activator, single point]	
CC1(C)Cc2c(c(N3CCOCC3)nc3sc(C(=O)Nc4cccc(Cl)c4)c(N)c23)CO1		inconclusive: -8.3%
COc1ccc(NC(=O)CC23CC4CC(C2)CC(n2nnc(C)n2)(C4)C3)cc1		inconclusive: -0.0878%
CC(C)n1cc(CNC(=O)C2CCC(=O)N(Cc3ccccc3F)C2)cn1 (stereo not given)		inconclusive: 135%
Cc1ccnc(NC(=O)c2c(-c3ccccc3Cl)noc2C)c1		inconclusive: 6.92%
O=C(Nc1ccc(Cl)cc1Cl)c1ccc(-c2ccccc2)cc1		inconclusive: 18.8%
COc1ccc(OC)c(NC(=O)c2cc(S(=O)(=O)NCc3ccco3)ccc2F)c1	inconclusive: 2.31 µM [activator, full curve, poor fit]	
CCC1C(C#N)=C(SC)NC2=C1C(=O)CC(C)(C)C2 (stereo not given)		inconclusive: -0.191%
CCOC(=O)C(=O)C1=C(N2CCOCC2)/C(=C\c2cccc([N+](=O)[O-])c2)CC1		inactive
CCN(CC)C(=O)COc1cc(C)cc2oc(=O)cc(-c3ccccc3)c12		inconclusive: 20.8%
Cc1nc2ccccc2c(=O)n1-c1cccc(NS(=O)(=O)c2ccccc2)c1	inconclusive: 5.17 µM [falling, full curve, poor fit]	
CC(C)c1nnc(NC(=O)c2sc3ccccc3c2Cl)s1		inconclusive: 6.7%
O=C(CC1C(=O)NCCN1C(=S)Nc1ccccc1)Nc1ccc(F)cc1 (stereo not given)		inconclusive: -12%
COc1ccc(S(=O)(=O)N2CCN(c3ccccn3)CC2)cc1[N+](=O)[O-]		inconclusive: 9.71%
Cc1cc([N+](=O)[O-])nn1CC(=O)NNC(=S)Nc1ccc([N+](=O)[O-])cc1		inconclusive: 41.7%
COc1cccc2[nH]c3c(=O)n(CCCN4CCOCC4)cnc3c12		inconclusive: 41.1%
